Reference: paper PMC11253389
Results are given in words; binding and its absence hold for the method and conditions named. Binding seen in cells or lysates may run through a third protein. Some entries that bind do so weakly or less than the wild type.

The chains behind the UniProt entries cited, without tags or fusion partners. Residues count along the entry.
UniProt P35442, residues 19-1172: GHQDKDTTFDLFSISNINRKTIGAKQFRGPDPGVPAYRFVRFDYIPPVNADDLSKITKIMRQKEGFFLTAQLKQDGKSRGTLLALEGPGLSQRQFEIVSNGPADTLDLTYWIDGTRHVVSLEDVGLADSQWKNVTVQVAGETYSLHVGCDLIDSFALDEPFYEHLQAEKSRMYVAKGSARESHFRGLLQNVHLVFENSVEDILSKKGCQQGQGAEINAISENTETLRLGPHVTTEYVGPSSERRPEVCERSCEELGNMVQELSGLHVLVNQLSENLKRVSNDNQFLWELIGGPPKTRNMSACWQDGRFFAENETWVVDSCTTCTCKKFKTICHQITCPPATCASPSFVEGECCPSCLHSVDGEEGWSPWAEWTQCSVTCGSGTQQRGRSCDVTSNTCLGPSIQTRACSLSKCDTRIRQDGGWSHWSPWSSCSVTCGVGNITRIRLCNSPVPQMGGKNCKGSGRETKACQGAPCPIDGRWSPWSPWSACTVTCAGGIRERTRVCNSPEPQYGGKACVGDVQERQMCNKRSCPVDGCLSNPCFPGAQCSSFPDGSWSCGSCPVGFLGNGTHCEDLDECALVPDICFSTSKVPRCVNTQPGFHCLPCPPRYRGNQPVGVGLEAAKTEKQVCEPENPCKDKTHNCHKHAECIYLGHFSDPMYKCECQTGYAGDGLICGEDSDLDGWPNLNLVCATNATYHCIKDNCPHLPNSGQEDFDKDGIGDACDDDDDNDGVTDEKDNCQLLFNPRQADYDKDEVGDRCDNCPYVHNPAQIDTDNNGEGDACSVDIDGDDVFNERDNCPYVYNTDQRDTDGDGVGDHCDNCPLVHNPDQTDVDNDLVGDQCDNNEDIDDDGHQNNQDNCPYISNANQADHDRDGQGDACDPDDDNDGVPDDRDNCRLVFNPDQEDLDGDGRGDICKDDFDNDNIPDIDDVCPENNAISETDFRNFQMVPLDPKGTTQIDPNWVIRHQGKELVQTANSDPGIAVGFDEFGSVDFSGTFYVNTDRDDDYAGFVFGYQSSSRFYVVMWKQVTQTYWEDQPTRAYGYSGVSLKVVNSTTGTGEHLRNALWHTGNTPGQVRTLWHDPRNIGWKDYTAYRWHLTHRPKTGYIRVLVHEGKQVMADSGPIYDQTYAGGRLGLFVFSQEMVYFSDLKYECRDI
UniProt P35222: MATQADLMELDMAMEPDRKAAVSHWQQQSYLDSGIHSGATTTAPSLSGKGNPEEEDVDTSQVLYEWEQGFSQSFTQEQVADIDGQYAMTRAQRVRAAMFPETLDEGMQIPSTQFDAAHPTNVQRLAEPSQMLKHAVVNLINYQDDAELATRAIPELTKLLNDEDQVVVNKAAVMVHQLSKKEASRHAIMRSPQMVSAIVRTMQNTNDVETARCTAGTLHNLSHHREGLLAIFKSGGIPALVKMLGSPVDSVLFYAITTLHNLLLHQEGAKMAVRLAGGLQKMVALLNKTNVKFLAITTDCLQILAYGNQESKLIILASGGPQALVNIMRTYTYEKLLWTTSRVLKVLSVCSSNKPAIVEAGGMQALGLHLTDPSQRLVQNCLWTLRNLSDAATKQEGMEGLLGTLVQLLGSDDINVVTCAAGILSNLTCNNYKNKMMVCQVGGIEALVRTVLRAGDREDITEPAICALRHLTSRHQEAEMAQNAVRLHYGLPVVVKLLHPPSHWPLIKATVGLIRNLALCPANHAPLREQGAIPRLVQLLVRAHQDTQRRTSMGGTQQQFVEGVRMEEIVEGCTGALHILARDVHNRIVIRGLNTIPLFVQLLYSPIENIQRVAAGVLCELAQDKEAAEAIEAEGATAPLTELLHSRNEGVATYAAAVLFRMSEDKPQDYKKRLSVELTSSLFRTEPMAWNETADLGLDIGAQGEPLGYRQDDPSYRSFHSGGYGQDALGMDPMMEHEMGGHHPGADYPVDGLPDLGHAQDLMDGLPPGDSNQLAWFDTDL
UniProt P63104: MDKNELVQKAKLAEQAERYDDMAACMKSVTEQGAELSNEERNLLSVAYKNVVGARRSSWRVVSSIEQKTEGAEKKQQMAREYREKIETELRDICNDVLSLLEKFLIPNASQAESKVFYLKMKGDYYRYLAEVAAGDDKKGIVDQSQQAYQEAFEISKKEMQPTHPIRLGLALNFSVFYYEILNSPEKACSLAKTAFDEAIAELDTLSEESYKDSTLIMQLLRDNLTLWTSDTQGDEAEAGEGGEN

How the values were obtained:
[1] = target: labeled THBS2 coexpressed in HEK293 cells (UniProt P35442); test: co-IP; labeled proteins coexpressed in HEK293 cells, detected by Western blot (Fig. 4E)
[2] = target: Thrombospondin-2 (THBS2) (human (endogenous in CRC cell lines)) (UniProt P35442); test: co-IP; endogenous proteins in CRC cells, detected by Western blot (Fig. 4D); details in the Supplemental Materials and Methods

With “labeled β-catenin coexpressed in HEK293 cells (from UniProt P35222 1-781)” the binding [1] was “binds”.
With “labeled YWHAZ coexpressed in HEK293 cells (from UniProt P63104 1-245)” the binding [1] was “binds”.
β-catenin (from UniProt P35222 1-781) was tested, and the binding [2] was “binds”.
YWHAZ (from UniProt P63104 1-245) was tested, and the binding [2] was “binds”.
